Data source: PubChem BioAssay AID504744 (Drosophila RNAi Screening Center, 2011)
Aim: 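Uncover factors, including feedback loops, that control dAkt activation in fly cells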 (primary screen). System: Drosophila Kc167 cells. Knock-down reagent: long dsRNA against Drosophila genes, 250 ng dsRNA per well of a 384-well plate. Time to read-out: 3 days of knock-down, then overnight serum-free starvation before stimulation. Conditions: bovine insulin at 387 nM for 10 minutes after 12 h without serum. Detection: 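In-cell antibody fluorescence for phospho-dAkt in each well over DNA-dye signal, with log2 residuals expressed as z-scores adjusted for cell count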. Hit rule: 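Hit in the insulin screen when the two-replicate mean z-score is more extreme than plus or minus 2.5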.
The screen tested about 23,000 reagents; below is an unselected part of those with a known target gene and a result. Of all reagents, 98 (0.43%) are marked active. 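Only hit calls are given; the phospho-dAkt signals, z-scores and hit direction were not deposited.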

CG7453 [DRSC20046] → outcome = inactive
RpL12 [DRSC04344] → outcome = inactive
Pvf2 [DRSC00968] → outcome = inactive
Pvf2 [DRSC02283] → outcome = inactive
CG32188 [DRSC09510] → outcome = inactive
CG4842 [DRSC10453] → outcome = inactive
CG7884 [DRSC20065] → outcome = inactive
CG12432 (retired record) [DRSC19455] → outcome = inactive
mthl14 [DRSC07865] → outcome = inactive
Ogdh [DRSC09854] → outcome = inactive
Ogdh [DRSC09855] → outcome = inactive
Eig71Ea [DRSC11148] → outcome = inactive
Cpr67Fa1 [DRSC10932] → outcome = inactive
Cyp4d1 [DRSC17694] → outcome = inactive
Cyp4d1 [DRSC18456] → outcome = inactive
HHEX [DRSC16186] → outcome = inactive
CtsB [DRSC19361] → outcome = inactive
mtd [DRSC12131] → outcome = inactive
mtd [DRSC12380] → outcome = inactive
mtd [DRSC12381] → outcome = inactive
CG8149 [DRSC16391] → outcome = inactive
CG17687 [DRSC10279] → outcome = inactive
CG15357 [DRSC00387] → outcome = inactive
Aldh7A1 [DRSC11083] → outcome = inactive
SmydA-1 [DRSC07200] → outcome = inactive
mbm [DRSC00319] → outcome = inactive
CG11857 [DRSC14411] → outcome = inactive
CG31275 [DRSC16919] → outcome = inactive
CG5346 [DRSC15778] → outcome = inactive
Synj [DRSC04526] → outcome = inactive
CG12448 [DRSC01967] → outcome = inactive
CG3588 [DRSC18473] → outcome = inactive
CG31952 [DRSC00428] → outcome = inactive
CG31952 [DRSC21997] → outcome = inactive
Or85e (retired record) [DRSC16768] → outcome = inactive
CG1440 [DRSC17915] → outcome = inactive

Reformatted: results already given.
{"target gene": "CG11857", "dsRNA": "DRSC14411", "outcome": "inactive"}
{"target gene": "CG31275", "dsRNA": "DRSC16919", "outcome": "inactive"}
{"target gene": "CG5346", "dsRNA": "DRSC15778", "outcome": "inactive"}

The listing continues.
galla-1 [DRSC05987] → outcome = inactive
morgue [DRSC00264] → outcome = inactive
svr [DRSC17293] → outcome = inactive
svr [DRSC18841] → outcome = inactive
CG31054 (retired record) [DRSC22134] → outcome = inactive
CG13042 [DRSC09923] → outcome = inactive
CG11151 [DRSC19387] → outcome = inactive
Clamp [DRSC03718] → outcome = inactive
Clamp [DRSC21682] → outcome = inactive
CG32985 [DRSC02634] → outcome = inactive
b6 [DRSC18740] → outcome = inactive
Pif2 [DRSC12525] → outcome = inactive
Kr [DRSC04622] → outcome = inactive
UGP [DRSC10411] → outcome = inactive
Ziz [DRSC02506] → outcome = inactive
Ziz [DRSC02976] → outcome = inactive
CG34409 [DRSC14577] → outcome = inactive
CG34409 [DRSC21667] → outcome = inactive
CG30286 [DRSC04070] → outcome = inactive
CG3703 [DRSC18172] → outcome = inactive
CG3703 [DRSC18173] → outcome = inactive
CG3703 [DRSC18643] → outcome = inactive
